One purity is given for all peptides; the source may state it once.
Assays:
peptide synthesis = conditions: for step yield: coupling step
[1] = general procedure: Fmoc solid-phase peptide synthesis in flow; SASRIN resin (Bachem), preloaded with Fmoc amino acid; Fmoc amino acid OPFP esters, pGlu-OPCLP, HOBT as catalyst; conditions: whole synthesis, 214 nm, one disulfide bridge, sequence written open

(Fmoc-Glu(γ-OtBu)-Asp(β-OtBu)-Cys-Lvs(Nε-Boc)-OtBu)2
step yield (peptide synthesis): 77%

(Glu-Asp-Cys-Lys)2
final HPLC purity (peptide synthesis; late stage modification step, 214 nm, one disulfide bridge, sequence written open): 100%

(pGlu-Asp-Asp-Cys-Lys)b 2
final HPLC purity [1]: 100%

(pGlu-Glu(γ-OtBu)-Asp(β-OtBu)-Cys-Lys(Nε-Boc)-OtBu)2
step yield (peptide synthesis): 59%

(pGlu-Glu-Cys-Lys)2
final HPLC purity ([1]; run 1): 100%

Reference: US4987122A (Nycomed AS, priority 1986, dated 1991)
